Laboratory results: PMC9454482
These are yes or no findings as the source states them, for the method shown. Binding seen in cells or lysates may run through a third protein. Here binding means that the protein was enriched with, or labelled near, the bait; the list need not be complete. Blank lines part the entries; values can stand above or below the binder they belong to.

The chains behind the UniProt entries cited, without tags or fusion partners.
UniProt Q9CQW9: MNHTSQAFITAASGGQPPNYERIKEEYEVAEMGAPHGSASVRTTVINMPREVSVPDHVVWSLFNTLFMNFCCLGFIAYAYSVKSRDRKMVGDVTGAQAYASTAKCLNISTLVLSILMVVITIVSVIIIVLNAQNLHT

Biological target: Interferon-induced transmembrane protein 3 (Ifitm3), mouse (mouse (endogenous in BM-DCs)) (UniProt Q9CQW9)
Assay: affinity purification with mass spectrometry; SILAC-IP: anti-fragilis (Ifitm3) antibody on protein A/G agarose beads, lysates of wt ('Medium') against Ifitm3-/- ('Heavy') BM-DCs, mock infected or infected with MCMV (MOI 1) for 3 h; Pierce IP lysis buffer

B1: Ifitm1 (protein, UniProt Q9D103 1-106)
chain: MPKEQQEVVVLGSPHISTSATATTINMPEISTPDHVVWSLFNTLFMNFCCLGFVAYAYSVKSRDRKMVGDTTGAQAFASTAKCLNISSLFFTILTAIVVIVVCAIR
binding: binds

B2: Ifitm2 (protein, UniProt Q99J93 1-144)
chain: MSHNSQAFLSTNAGLPPSYETIKEEYGVTELGEPSNSAVVRTTVINMPREVSVPDHVVWSLFNTLFFNACCLGFVAYAYSVKSRDRKMVGDVVGAQAYASTAKCLNISSLIFSILMVIICIIIFSTTSVVVFQSFAQRTPHSGF
binding: binds

B5: Nogo-B (reticulon 4 isoform), mouse (protein, UniProt Q99P72-5 1-356)
chain: MEDIDQSSLVSSSADSPPRPPPAFKYQFVTEPEDEEDEEDEEEEEDDEDLEELEVLERKPAAGLSAAPVPPAAAPLLDFSSDSVPPAPRGPLPAAPPTAPERQPSWERSPAASAPSLPPAAAVLPSKLPEDDEPPARPPAPAGASPLAEPAAPPSTPAAPKRRGSGSVVVDLLYWRDIKKTGVVFGASLFLLLSLTVFSIVSVTAYIALALLSVTISFRIYKGVIQAIQKSDEGHPFRAYLESEVAISEELVQKYSNSALGHVNSTIKELRRLFLVDDLVDSLKFAVLMWVFTYVGALFNGLTLLILALISLFSIPVIYERHQAQIDHYLGLANKSVKDAMAKIQAKIPGLKRKAE
binding: binds

More lines, now with the values ahead:

binding: binds
B3: PRA1 family protein 3 (Arl6ip5, Praf3) (protein, UniProt Q8R5J9 1-188)
chain: MDVNLAPLRAWDDFFPGSDRFARPDFRDISKWNNRVVSNLLYYQTNYLVVAAMMISVVGFLSPFNMILGGVIVVLVFMGFVWAAHNKDILRRMKKQYPTAFVMVVMLASYFLISMFGGVMVFVFGITLPLLLMFIHASLRLRNLKNKLENKMEGIGLKKTPMGIILDALEQQEDNINKFADYISKARE

binding: binds
B4: Rtn3 (protein, UniProt Q9ES97 1-964)
chain: MAESSAATQSPSVSSSSSGAEPSALGGGGGSPGACPALGAKSCGSSCADSFVSSSSSQPVSIFSTSQAGLSSLCSDEPPSKSMTSSFLSSSEIHNPDPTTPLGEKSETLGSQFVLAKGKDPLVLLDKKKLDSPQGTNKDRVDAPVSLATGIPCSHPSIPDSFPEQPAFLSKEIGPAEEWVVKDQEPKNPNKVPDGEDRSALDFGQSKAEHICTYSLSPSELPVASVEKDSPESPFEVIIDKATFDREFKDLYKENPNDLGGWAAHGDRESPADLLEMNDKLFPLRNKEAGRYPSSVLLGRQFSHTTAALEEVSRCVNDMHNFTNEILTWDLDPQAKQQANKTSCTTESTGLDRSELRSEIPVINLKTNPQQKMPVCSFNGSTPITKSTGDWTEAFTEGKPVRDYLSSTKEAGGNGVPGSSQLHSELPGSMPEKWVSGSGAATVEVTLPNLRGAWPNSVMGEVTEVDSSGESDDTVIEDITEKPDSLPSAAAKTSEREIKETPSRETVRSEMCENSEQPQAQPETPTQKSLEGEVASQVPNTLNEVTPEKLDMTNNPKVCSAAPPSVLNETGFSLTVPASAKLESLLGKYVEDTDGSSPEDLMAVLTGAEEKGIVDKEEGDVLEAVLEKIADFKNTLPVELLHESELSGSETKNIKSKYSEDSRETTGGAPTMSPDLEQEQLTIRAIKELGERQAEKVQDEGISSGGKLKQTFAPQSGPQSSSDILEHTDVKTGSDLGIPKNPTIIKNTRIDSISSLTKTEMVNKNVLARLLSDFPVHDLIFWRDVKKTGFVFGTTLIMLLSLAAFSVISVVSYLILALLSVTISFRVYKSVIQAVQKSEEGHPFKAYLDVDITLSSEAFHNYMNAAMVHVNKALKLIIRLFLVEDLVDSLKLAVFMWLMTYVGAVFNGITLLILAELLVFSVPIVYEKYKTQIDHYVGIARDQTKSIVEKIQAKLPGIAKKKAE
